These results are taken from paper PMC10523135 (RSC Advances, 2023).

The test system of the test is MCF-7 (human breast cancer cell line). Briefly: CCK-8 antiproliferative assay, MCF-7. Format: cell-based. Particulars: MCF7, 48 h, read-out: IC50 (μM) ± SD MCF-7. For orientation: Tetrazolium assays rely on reduction of a dye to a coloured formazan, in cell work by metabolically active cells.

Take `O=C(CCCCCCC(=O)Nc1ccccc1)NO` [SAHA]: the IC50 stood at 11.8 ± 0.14 µM.

As usually defined, the IC50 is the concentration that inhibits the measured activity by half.
